{
  "source": "patent US12398131B2",
  "about": "“Thiadiazolyl derivatives as DNA polymerase theta inhibitors and uses thereof” (GlaxoSmithKline Intellectual Property (No.4) Limited, priority 2022, dated 2025)",
  "system": "Rat rAPase (recombinant rat intestinal alkaline phosphatase)",
  "test": "Hydrolysis kinetics of prodrug with recombinant alkaline phosphatase (phosphate sensor protein)",
  "assay_type": "biochemical",
  "method": "Hydrolysis kinetics for Example 1, kcat, Km and kcat/Km, were determined with recombinant human, mouse, and rat alkaline phosphatases from commercial sources using the Invitrogen phosphate sensor protein.\nExample 1 was hydrolyzed with similar efficiencies by recombinant human, mouse and rat alkaline phosphatases (Table 2). Three commercially available alkaline phosphatases (APase) were tested for the hydrolysis rate of Example 1. The human and rat enzymes are intestinal alkaline phosphatases, while the mouse APase is a tissue-nonspecific isozyme, which may explain some of the differences in kinetic parameters.",
  "note": "Values joined by “and” are separate entries in the source; they are usually repeats but may differ in a detail not shown here. Equal values may be shown once. The name of at least one read-out is uncertain.",
  "data": [
    {"smiles": "COc1nn(COP(=O)(O)O)/c(=N/C(=O)c2cnc(C)cc2-c2cc(Cl)ncc2OC)s1", "note": "[Example 1, (Z)-(2-((2′-chloro-5′-methoxy-6-methyl-[4,4′-bipyridine]-3-carbonyl)imino)-5-methoxy-1,3,4-thiadiazol-3(2H)-yl)methyl dihydrogen phosphate]", "values": [
      {"measurement": "kcat/Km", "value": "2.7e+06 M⁻¹ s⁻¹ and 2e+06 M⁻¹ s⁻¹"}
    ]}
  ]
}
